{
  "source": "patent US9163240B2",
  "about": "“SR-BI mutation as a predictor of low progesterone levels and poor fetal viability during pregnancy” (The Johns Hopkins University, priority 2009, dated 2015)",
  "assay_type_in_all_cases": "cell-based, human",
  "key": {"[1]": {"tested_on": "hormone sensitive lipase (HSL)", "experiment": "Total and phosphorylated HSL expression, western blot", "details": "Fo 10 μM, over 2-4 h, both scrambled and SR-BI KD cells"}, "StAR": {"tested_on": "StAR", "experiment": "StAR RNA expression, real-time PCR", "details": "scrambled cells, Fo 10 μM, 0-24 h"}, "3βHSD": {"tested_on": "3βHSD", "experiment": "3βHSD RNA expression, real-time PCR", "details": "scrambled cells, Fo 10 μM, 0-24 h"}},
  "note": "For at least one compound, name, drawing or mass did not settle the structure.",
  "data": [
    {"smiles": "C=C[C@@]1(C)CC(=O)[C@]2(O)[C@@]3(C)[C@@H](O)CCC(C)(C)[C@@H]3[C@H](O)[C@H](OC(C)=O)[C@@]2(C)O1", "note": "[Fo, Forskolin]", "values": [
      {"measurement": "pHSL expression as compared with DMSO", "setting": "[1]", "value": "increased"},
      {"measurement": "RNA expression of StAR in response to Fo stimulation", "setting": "StAR", "value": "significantly increased"},
      {"measurement": "RNA expression of 3βHSD in response to Fo stimulation", "setting": "3βHSD", "value": "significantly increased"}
    ]}
  ]
}
